Results are given in words; binding and its absence hold for the method and conditions named. In cells and extracts the contact can be indirect. Some entries that bind do so weakly or less than the wild type. Sequences can lack the tags named with a protein.

Protein sequences, listed by entry. Tags and fused reporters are not part of them.
UniProt P61026: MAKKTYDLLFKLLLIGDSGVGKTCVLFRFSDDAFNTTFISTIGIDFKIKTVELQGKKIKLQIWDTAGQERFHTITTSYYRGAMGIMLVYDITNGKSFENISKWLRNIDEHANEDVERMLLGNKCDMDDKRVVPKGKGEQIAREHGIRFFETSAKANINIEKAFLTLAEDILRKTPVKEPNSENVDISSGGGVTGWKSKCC

Experimental findings from article PMC5297731 are described below.

In this assay the target is T1, Male Germ Cells Rab GTPase-Activating Protein (MGCRABGAP), FLAG-tagged (human) (UniProt Q8IYX1).
T1 sequence: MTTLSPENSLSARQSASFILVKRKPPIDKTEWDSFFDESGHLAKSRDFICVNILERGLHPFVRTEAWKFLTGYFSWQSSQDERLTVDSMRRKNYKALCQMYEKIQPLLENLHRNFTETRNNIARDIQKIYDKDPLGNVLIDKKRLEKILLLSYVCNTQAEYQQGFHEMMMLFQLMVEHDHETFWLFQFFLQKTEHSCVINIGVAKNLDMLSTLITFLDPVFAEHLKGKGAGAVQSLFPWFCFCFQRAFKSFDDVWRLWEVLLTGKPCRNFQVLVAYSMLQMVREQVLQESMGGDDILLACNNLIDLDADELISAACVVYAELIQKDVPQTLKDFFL
Nature of the assay: co-IP; lysates of NT2D1 cells transfected with pFLAG-MGCRABGAP (4 mg protein in 1 mL, precleared with protein A/G beads) incubated overnight at 4 °C with anti-FLAG antibody or control IgG; washed twice with PBS; immunoblot with anti-RAB10 antibody. In general terms: A western blot detects proteins with antibodies after separation by electrophoresis.

In the case of RAB10 (from UniProt P61026 1-200), the binding result is “binds”.
